Source: publication PMC4859800
Results are given in words; binding and its absence hold for the method and conditions named.

Assays:
Experiment in all cases: two-hybrid; array-based Y2H matrix; preys in pACT2 (PJ69-4a) mated against 23 baits in pAS2-1 (PJ69-4α); growth on SD-Leu-Trp-His + 6 mM 3-AT greater than the negative control after 2 weeks
[1] = target: T1, Rrp12 (Y2H bait, pAS2-1) (S. cerevisiae) (UniProt Q12754)
T1 sequence: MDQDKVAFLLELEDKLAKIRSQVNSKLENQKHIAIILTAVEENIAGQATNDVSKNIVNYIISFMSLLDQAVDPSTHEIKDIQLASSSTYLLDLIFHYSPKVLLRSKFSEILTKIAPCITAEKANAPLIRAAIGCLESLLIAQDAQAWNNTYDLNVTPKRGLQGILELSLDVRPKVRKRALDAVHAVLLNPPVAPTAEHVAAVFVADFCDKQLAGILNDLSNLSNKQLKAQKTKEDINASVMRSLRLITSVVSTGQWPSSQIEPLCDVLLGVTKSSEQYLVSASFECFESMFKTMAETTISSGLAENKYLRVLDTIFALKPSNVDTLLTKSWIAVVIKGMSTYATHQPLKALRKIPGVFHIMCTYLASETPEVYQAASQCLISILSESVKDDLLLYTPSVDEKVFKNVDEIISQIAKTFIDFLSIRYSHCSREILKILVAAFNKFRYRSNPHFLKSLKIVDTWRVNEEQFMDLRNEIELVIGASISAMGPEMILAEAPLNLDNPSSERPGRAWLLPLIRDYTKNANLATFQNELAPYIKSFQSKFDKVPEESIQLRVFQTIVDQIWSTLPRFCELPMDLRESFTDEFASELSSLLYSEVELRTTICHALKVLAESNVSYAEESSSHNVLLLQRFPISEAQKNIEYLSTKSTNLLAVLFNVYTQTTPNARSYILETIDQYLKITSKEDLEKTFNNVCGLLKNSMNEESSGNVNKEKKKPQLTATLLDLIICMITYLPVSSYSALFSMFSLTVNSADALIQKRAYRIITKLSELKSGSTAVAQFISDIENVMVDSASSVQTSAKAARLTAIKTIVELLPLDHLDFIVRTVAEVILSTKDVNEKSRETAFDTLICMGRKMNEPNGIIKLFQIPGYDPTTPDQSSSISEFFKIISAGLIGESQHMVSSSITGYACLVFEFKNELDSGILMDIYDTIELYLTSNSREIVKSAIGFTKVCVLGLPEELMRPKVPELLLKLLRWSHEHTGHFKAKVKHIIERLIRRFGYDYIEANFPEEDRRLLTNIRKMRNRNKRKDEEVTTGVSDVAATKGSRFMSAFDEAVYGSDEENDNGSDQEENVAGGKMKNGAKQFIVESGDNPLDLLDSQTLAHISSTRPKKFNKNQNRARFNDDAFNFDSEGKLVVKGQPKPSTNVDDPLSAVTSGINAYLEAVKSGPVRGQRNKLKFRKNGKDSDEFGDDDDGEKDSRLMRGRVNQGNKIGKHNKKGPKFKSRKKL

[2] = target: T2, Nop4 (Y2H bait, pAS2-1) (S. cerevisiae) (UniProt P37838)
T2 sequence: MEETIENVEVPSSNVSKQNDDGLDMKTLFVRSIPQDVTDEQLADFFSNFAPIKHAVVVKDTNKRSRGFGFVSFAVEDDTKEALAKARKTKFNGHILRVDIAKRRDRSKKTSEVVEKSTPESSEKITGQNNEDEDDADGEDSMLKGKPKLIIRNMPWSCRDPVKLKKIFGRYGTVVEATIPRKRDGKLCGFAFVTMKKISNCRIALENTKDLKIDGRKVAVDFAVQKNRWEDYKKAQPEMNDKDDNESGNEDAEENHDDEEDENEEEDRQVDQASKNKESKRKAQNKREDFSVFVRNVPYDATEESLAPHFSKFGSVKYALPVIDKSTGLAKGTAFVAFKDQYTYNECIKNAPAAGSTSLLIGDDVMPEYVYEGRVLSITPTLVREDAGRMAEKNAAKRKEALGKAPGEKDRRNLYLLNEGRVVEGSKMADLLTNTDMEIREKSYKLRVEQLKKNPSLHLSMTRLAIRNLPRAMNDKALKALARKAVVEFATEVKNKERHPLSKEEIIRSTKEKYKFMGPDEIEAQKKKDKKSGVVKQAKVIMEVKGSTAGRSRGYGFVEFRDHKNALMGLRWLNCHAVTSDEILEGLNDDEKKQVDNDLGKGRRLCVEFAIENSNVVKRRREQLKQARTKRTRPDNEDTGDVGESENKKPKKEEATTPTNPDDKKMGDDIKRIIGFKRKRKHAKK

[3] = target: T3, Ebp2 (Y2H bait, pAS2-1) (S. cerevisiae) (UniProt P36049)
T3 sequence: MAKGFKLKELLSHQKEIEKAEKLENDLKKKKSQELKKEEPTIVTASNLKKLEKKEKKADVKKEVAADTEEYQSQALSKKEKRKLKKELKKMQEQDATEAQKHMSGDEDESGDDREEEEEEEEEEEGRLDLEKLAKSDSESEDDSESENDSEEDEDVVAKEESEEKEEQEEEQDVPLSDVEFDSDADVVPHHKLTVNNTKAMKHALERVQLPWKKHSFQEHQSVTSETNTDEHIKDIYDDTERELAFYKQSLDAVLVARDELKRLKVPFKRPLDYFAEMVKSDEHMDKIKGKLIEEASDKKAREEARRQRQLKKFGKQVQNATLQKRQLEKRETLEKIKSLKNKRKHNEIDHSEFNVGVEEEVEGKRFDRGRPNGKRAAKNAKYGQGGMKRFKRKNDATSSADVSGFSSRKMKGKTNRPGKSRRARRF

Measured: binding

B1: Nop4 RRM 1–2 (Y2H prey, pACT2) (domain or fragment, UniProt P37838 1-250)
chain: MEETIENVEVPSSNVSKQNDDGLDMKTLFVRSIPQDVTDEQLADFFSNFAPIKHAVVVKDTNKRSRGFGFVSFAVEDDTKEALAKARKTKFNGHILRVDIAKRRDRSKKTSEVVEKSTPESSEKITGQNNEDEDDADGEDSMLKGKPKLIIRNMPWSCRDPVKLKKIFGRYGTVVEATIPRKRDGKLCGFAFVTMKKISNCRIALENTKDLKIDGRKVAVDFAVQKNRWEDYKKAQPEMNDKDDNESGNE
no binding: all assays above
